The text below walks through data of article PMC4618059.

The chains behind the UniProt entries cited, without tags or fusion partners. Residues count along the entry.
UniProt Q8NI35: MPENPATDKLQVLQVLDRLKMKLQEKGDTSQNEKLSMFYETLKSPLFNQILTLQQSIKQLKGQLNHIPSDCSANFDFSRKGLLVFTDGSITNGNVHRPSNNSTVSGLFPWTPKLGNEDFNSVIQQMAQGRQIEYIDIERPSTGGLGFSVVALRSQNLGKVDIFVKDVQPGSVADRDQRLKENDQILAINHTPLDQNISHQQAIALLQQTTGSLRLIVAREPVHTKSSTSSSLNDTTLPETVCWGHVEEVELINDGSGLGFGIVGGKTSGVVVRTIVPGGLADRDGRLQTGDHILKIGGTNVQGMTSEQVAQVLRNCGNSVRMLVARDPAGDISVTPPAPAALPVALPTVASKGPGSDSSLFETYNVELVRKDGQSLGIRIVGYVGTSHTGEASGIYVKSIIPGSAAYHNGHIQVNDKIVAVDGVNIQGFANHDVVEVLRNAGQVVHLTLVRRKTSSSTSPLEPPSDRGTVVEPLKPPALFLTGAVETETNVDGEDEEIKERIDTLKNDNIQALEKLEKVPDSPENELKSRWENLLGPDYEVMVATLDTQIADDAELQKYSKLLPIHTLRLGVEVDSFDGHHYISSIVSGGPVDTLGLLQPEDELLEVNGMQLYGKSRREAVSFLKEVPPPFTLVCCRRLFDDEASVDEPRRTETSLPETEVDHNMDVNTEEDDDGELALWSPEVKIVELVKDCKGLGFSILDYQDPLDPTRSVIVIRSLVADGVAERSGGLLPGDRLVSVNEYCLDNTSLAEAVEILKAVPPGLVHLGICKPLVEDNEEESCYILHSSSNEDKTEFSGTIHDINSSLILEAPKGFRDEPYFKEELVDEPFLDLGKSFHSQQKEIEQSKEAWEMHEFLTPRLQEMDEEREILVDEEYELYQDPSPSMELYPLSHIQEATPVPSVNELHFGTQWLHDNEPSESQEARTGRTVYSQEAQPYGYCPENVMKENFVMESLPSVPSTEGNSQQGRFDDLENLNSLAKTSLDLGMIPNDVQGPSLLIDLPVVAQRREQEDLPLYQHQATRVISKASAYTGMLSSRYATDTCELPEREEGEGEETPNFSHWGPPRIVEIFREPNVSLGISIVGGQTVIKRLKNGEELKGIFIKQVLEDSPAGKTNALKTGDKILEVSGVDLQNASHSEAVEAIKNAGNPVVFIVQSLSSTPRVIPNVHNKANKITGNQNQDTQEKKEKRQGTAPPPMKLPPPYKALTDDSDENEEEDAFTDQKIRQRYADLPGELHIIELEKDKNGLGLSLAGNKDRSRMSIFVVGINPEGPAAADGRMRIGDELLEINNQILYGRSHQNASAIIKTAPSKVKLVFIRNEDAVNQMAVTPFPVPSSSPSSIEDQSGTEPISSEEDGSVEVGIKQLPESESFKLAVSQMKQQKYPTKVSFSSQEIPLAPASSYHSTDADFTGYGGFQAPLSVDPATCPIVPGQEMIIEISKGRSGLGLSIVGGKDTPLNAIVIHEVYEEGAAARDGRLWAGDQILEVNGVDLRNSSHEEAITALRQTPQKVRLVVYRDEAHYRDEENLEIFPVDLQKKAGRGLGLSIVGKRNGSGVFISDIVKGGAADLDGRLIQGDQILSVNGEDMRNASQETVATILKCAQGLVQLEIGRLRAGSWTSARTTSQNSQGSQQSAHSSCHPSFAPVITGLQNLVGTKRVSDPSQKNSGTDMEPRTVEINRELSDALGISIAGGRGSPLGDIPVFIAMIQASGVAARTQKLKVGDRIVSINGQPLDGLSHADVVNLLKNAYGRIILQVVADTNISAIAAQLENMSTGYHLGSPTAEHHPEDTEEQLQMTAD
UniProt Q13425: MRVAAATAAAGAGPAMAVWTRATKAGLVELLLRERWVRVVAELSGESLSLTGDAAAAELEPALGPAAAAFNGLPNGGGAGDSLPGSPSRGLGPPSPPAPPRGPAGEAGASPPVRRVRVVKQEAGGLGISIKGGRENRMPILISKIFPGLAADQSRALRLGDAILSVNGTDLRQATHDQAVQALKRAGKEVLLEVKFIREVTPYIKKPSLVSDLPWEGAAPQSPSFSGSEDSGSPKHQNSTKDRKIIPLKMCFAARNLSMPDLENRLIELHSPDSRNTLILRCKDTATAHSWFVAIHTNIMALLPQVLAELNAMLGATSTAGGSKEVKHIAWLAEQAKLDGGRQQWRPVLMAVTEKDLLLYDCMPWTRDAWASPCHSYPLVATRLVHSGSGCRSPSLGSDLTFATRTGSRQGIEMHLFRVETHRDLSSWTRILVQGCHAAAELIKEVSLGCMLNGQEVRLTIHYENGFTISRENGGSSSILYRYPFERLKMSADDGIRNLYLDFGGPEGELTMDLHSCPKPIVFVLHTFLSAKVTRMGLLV
UniProt Q9ULJ8: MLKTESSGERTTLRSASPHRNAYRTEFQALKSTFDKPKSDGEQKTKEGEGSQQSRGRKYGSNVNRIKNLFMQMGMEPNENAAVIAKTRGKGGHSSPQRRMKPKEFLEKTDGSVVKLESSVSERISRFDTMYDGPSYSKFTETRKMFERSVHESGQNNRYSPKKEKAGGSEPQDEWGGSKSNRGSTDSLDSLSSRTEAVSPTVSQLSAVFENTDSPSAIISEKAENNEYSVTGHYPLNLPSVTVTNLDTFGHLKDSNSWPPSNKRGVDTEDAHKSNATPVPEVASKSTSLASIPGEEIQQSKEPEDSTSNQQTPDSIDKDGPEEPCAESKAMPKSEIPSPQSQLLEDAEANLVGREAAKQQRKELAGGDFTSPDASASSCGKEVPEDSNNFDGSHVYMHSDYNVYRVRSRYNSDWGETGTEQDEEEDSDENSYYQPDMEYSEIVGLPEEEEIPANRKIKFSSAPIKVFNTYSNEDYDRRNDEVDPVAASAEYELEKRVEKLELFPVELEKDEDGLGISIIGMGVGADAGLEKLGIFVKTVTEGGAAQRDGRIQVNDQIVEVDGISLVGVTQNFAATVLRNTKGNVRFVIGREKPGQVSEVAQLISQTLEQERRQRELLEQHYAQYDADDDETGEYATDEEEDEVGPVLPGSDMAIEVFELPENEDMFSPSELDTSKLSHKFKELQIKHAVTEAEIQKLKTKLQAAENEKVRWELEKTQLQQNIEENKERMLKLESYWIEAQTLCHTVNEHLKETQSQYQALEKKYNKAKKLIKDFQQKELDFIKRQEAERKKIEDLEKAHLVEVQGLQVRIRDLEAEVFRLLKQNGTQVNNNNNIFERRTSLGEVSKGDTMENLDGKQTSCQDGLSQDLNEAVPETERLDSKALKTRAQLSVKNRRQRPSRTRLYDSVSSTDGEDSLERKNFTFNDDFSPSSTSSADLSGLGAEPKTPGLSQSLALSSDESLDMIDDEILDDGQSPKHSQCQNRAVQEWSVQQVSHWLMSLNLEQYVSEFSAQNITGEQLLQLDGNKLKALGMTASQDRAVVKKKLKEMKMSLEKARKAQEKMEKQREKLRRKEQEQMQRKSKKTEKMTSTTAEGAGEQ
UniProt Q07157: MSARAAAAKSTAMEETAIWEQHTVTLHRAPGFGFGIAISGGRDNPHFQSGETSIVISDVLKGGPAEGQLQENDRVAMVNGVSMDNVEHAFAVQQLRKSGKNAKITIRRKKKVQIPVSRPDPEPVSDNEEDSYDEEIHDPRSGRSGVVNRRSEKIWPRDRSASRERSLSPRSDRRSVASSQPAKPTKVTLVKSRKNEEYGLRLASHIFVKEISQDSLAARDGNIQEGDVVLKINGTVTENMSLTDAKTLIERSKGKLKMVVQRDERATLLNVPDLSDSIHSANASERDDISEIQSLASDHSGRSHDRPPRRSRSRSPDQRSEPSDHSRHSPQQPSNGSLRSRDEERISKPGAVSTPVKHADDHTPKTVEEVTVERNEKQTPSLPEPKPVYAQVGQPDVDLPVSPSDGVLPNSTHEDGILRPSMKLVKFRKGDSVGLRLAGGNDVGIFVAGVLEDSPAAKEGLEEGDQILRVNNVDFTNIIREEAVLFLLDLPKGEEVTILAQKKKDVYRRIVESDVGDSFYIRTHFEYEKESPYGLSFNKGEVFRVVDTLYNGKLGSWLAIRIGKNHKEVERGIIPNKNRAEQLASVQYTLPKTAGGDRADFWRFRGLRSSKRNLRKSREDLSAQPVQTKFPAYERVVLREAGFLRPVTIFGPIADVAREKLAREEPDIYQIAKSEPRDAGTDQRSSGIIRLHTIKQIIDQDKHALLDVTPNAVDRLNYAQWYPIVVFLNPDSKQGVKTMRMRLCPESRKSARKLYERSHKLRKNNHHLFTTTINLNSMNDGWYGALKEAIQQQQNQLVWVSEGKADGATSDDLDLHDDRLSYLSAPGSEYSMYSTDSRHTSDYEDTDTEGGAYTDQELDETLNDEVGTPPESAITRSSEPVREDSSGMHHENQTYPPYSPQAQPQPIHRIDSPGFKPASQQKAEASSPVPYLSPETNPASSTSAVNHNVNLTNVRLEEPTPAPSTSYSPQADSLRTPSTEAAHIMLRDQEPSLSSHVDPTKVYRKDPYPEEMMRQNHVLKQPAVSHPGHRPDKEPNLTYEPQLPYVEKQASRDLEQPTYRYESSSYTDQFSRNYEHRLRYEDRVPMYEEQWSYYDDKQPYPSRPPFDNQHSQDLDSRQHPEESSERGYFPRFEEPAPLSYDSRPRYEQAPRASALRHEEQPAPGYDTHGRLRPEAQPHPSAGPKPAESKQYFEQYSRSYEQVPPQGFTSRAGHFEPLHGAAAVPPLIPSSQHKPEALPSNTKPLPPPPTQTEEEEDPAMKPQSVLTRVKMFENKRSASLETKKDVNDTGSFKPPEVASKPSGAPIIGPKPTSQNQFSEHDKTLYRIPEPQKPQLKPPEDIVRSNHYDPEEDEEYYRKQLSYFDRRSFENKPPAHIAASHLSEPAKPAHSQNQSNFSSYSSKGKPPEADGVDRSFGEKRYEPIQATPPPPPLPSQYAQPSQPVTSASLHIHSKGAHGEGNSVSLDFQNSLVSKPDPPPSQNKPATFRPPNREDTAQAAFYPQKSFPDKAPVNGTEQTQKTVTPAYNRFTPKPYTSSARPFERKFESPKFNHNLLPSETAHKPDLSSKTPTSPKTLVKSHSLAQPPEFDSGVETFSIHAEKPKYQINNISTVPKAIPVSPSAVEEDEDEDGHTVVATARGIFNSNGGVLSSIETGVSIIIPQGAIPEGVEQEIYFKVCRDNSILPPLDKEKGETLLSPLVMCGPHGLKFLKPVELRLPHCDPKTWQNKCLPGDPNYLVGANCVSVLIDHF
UniProt P05387: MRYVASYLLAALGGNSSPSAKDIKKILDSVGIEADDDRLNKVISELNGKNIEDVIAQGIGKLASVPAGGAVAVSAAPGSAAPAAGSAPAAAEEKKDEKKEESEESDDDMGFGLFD
UniProt O00560: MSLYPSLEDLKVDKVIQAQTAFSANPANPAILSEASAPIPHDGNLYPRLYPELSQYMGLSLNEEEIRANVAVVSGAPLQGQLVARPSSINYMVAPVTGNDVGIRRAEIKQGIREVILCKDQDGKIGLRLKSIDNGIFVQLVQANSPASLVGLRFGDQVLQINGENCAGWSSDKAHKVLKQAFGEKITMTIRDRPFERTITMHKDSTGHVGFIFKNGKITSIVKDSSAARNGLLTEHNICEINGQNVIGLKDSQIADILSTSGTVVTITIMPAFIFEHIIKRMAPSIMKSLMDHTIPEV
UniProt Q92743, residues 23-480: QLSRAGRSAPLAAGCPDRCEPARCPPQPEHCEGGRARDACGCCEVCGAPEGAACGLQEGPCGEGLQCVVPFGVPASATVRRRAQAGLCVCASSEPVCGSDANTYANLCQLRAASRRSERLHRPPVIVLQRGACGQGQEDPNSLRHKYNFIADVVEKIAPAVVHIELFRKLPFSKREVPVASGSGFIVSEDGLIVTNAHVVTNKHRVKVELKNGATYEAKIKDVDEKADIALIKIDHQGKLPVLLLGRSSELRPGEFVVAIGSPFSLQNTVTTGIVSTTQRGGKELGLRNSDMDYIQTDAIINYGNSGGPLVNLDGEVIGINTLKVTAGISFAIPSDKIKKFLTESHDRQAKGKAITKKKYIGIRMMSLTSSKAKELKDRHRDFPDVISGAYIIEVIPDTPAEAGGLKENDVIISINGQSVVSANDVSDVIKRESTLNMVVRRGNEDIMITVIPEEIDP

These are yes or no findings as the source states them, for the method shown. In cells and extracts the contact can be indirect. These calls come from enrichment with a bait or labelling near it, and not all partners need be listed. For some assays here: No binding means not detected with the bait.

For experiment [1], the target named is T1, MAS C-terminal tail (Ct) peptide, residues 301 to 325 of human MAS receptor, N-terminal biotin, C316S (human).
T1 sequence (peptide, biotin on the N-terminus): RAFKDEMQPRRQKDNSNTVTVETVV
In words: affinity purification with mass spectrometry; as a1 and a2; the lysate in which this PDZ hit was found (HEK293, HL-1 or both) is told only in Fig 2B; only the target purified.

Experiment [2] shares this target. In words: affinity purification with mass spectrometry; biotinylated MAS Ct peptide immobilised on NeutrAvidin agarose resin; HEK293 cell lysate (~4 mg), overnight at 4°C; washes with D-PBS; elution with 2% SDS; LC-MS of whole gel lanes; resin alone as control; only the target purified.

With INADL (from UniProt Q8NI35 1-1801), the binding entry in experiment [1] was “binds”.

Regarding “SNTB2 (human) (from UniProt Q13425 1-540)”, the binding entry in experiment [2] is listed as “binds”.

As for TJP2 (from UniProt Q9UDY2 1-1190), the binding entry in experiment [2] was “binds”.

As for “UTRO (human) (from UniProt P46939 1-3433)”, the binding result in experiment [2] is “binds”.

“DMD (human) (from UniProt P11532 1-3685)”: in experiment [2], the binding result is on record as “binds”.

With NEB1 (from UniProt Q9ULJ8 1-1098), in experiment [2], the binding entry is “no binding”.

For MPP5 (from UniProt Q8N3R9 1-675), in experiment [1], the binding entry was “binds”.

PTN13 (from UniProt Q12923 1-2485): in experiment [1], the binding entry was “binds”.

TJP1 (from UniProt Q07157 1-1748): in experiment [2], the binding entry is reported as “binds”.

With SCRIB (from UniProt Q14160 1-1655), the binding entry in experiment [1] was “binds”.

For the molecule DDX21 (from UniProt Q9NR30 1-783), in experiment [2], the binding entry was “binds”.

NEB2 (from UniProt Q96SB3 1-817): the binding entry in experiment [2] is “no binding”.

As to RLA2 (from UniProt P05387 1-115), the binding result in experiment [2] is “binds”.

For CND1 (from UniProt Q15021 1-1401), the binding result in experiment [2] was “binds”.

For SDCB1 (from UniProt O00560 1-298), in experiment [1], the binding entry is “binds”.

In the case of HTRA1 (from UniProt Q92743 23-480), the binding entry in experiment [1] is reported as “binds”.

B1: DTNA (human) (protein, UniProt Q9Y4J8 1-743)
chain: MIEDSGKRGNTMAERRQLFAEMRAQDLDRIRLSTYRTACKLRFVQKKCNLHLVDIWNVIEALRENALNNLDPNTELNVSRLEAVLSTIFYQLNKRMPTTHQIHVEQSISLLLNFLLAAFDPEGHGKISVFAVKMALATLCGGKIMDKLRYIFSMISDSSGVMVYGRYDQFLREVLKLPTAVFEGPSFGYTEQSARSCFSQQKKVTLNGFLDTLMSDPPPQCLVWLPLLHRLANVENVFHPVECSYCHSESMMGFRYRCQQCHNYQLCQDCFWRGHAGGSHSNQHQMKEYTSWKSPAKKLTNALSKSLSCASSREPLHPMFPDQPEKPLNLAHIVDTWPPRPVTSMNDTLFSHSVPSSGSPFITRSSPPKDSEVEQNKLLARAAPAFLKGKGIQYSLNVADRLADEHVLIGLYVNMLRNNPSCMLESSNRLDEEHRLIARYAARLAAESSSSQPPQQRSAPDISFTIDANKQQRQLIAELENKNREILQEIQRLRLEHEQASQPTPEKAQQNPTLLAELRLLRQRKDELEQRMSALQESRRELMVQLEGLMKLLKTQGAGSPRSSPSHTISRPIPMPIRSASACSTPTHTPQDSLTGVGGDVQEAFAQSSRRNLRNDLLVAADSITNTMSSLVKELNSEVGSETESNVDSEFARTQFEDLVPSPTSEKAFLAQIHARKPGYIHSGATTSTMRGDMVTEDADPYVQPEDENYENDSVRQLENELQMEEYLKQKLQDEAYQVSLQG
As for B1, the binding entry in experiment [2] was “binds”.

B2: SNTB1 (human) (protein, UniProt Q13884 1-538)
chain: MAVAAAAAAAGPAGAGGGRAQRSGLLEVLVRDRWHKVLVNLSEDALVLSSEEGAAAYNGIGTATNGSFCRGAGAGHPGAGGAQPPDSPAGVRTAFTDLPEQVPESISNQKRGVKVLKQELGGLGISIKGGKENKMPILISKIFKGLAADQTQALYVGDAILSVNGADLRDATHDEAVQALKRAGKEVLLEVKYMREATPYVKKGSPVSEIGWETPPPESPRLGGSTSDPPSSQSFSFHRDRKSIPLKMCYVTRSMALADPENRQLEIHSPDAKHTVILRSKDSATAQAWFSAIHSNVNDLLTRVIAEVREQLGKTGIAGSREIRHLGWLAEKVPGESKKQWKPALVVLTEKDLLIYDSMPRRKEAWFSPVHTYPLLATRLVHSGPGKGSPQAGVDLSFATRTGTRQGIETHLFRAETSRDLSHWTRSIVQGCHNSAELIAEISTACTYKNQECRLTIHYENGFSITTEPQEGAFPKTIIQSPYEKLKMSSDDGIRMLYLDFGGKDGEIQLDLHSCPKPIVFIIHSFLSAKITRLGLVA
Consider B2, for which the binding entry in experiment [2] is recorded as “binds”.

B3: CTNL1 (protein, UniProt Q9UBT7 1-734)
chain: MAASPGPAGVGGAGAVYGSGSSGFALDSGLEIKTRSVEQTLLPLVSQITTLINHKDNTKKSDKTLQAIQRVGQAVNLAVGRFVKVGEAIANENWDLKEEINIACIEAKQAGETIAALTDITNLNHLESDGQITIFTDKTGVIKAARLLLSSVTKVLLLADRVVIKQIITSRNKVLATMERLEKVNSFQEFVQIFSQFGNEMVEFAHLSGDRQNDLKDEKKKAKMAAARAVLEKCTMMLLTASKTCLRHPNCESAHKNKEGVFDRMKVALDKVIEIVTDCKPNGETDISSISIFTGIKEFKMNIEALRENLYFQSKENLSVTLEVILERMEDFTDSAYTSHEHRERILELSTQARMELQQLISVWIQAQSKKTKSIAEELELSILKISHSLNELKKELHSTATQLAADLLKYHADHVVLKALKLTGVEGNLEALAEYACKLSEQKEQLVETCRLLRHISGTEPLEITCIHAEETFQVTGQQIISAAETLTLHPSSKIAKENLDVFCEAWESQISDMSTLLREINDVFEGRRGEKYGYLSLPKPMKNNANLKSLKPDKPDSEEQAKIAKLGLKLGLLTSDADCEIEKWEDQENEIVQYGRNMSSMAYSLYLFTRGEGPLKTSQDLIHQLEVFAAEGLKLTSSVQAFSKQLKDDDKLMLLLEINKLIPLCHQLQTVTKTSLQNKVFLKVDKCITKTRSMMALLVQLLSLCYKLLKKLQMENNGWVSVTNKDTMDSKT
Turning to B3, in experiment [2], the binding entry is listed as “binds”.

B4: DTNB (human) (protein, UniProt O60941 1-627)
chain: MIEESGNKRKTMAEKRQLFIEMRAQNFDVIRLSTYRTACKLRFVQKRCNLHLVDIWNMIEAFRDNGLNTLDHTTEISVSRLETVISSIYYQLNKRLPSTHQISVEQSISLLLNFMIAAYDSEGRGKLTVFSVKAMLATMCGGKMLDKLRYVFSQMSDSNGLMIFSKFDQFLKEVLKLPTAVFEGPSFGYTEHSVRTCFPQQRKIMLNMFLDTMMADPPPQCLVWLPLMHRLAHVENVFHPVECSYCRCESMMGFRYRCQQCHNYQLCQNCFWRGHAGGPHSNQHQMKEHSSWKSPAKKLSHAISKSLGCVPTREPPHPVFPEQPEKPLDLAHIVPPRPLTNMNDTMVSHMSSGVPTPTKRLQYSQDIPSHLADEHALIASYVARLQHCARVLDSPSRLDEEHRLIARYAARLAAEAGNVTRPPTDLSFNFDANKQQRQLIAELENKNREILQEIQRLRLEHEQASQPTPEKAQQNPTLLAELRLLRQRKDELEQRMSALQESRRELMVQLEELMKLLKEEEQKQAAQATGSPHTSPTHGGGRPMPMPVRSTSAGSTPTHCPQDSLSGVGGDVQEAFAQGTRRNLRNDLLVAADSITNTMSSLVKELHSAEEGAEEEEEKMQNGKDRG
For B4, in experiment [2], the binding result is listed as “binds”.

B5: CPVL (protein, UniProt Q9H3G5 23-476)
chain: LFRSLYRSVSMPPKGDSGQPLFLTPYIEAGKIQKGRELSLVGPFPGLNMKSYAGFLTVNKTYNSNLFFWFFPAQIQPEDAPVVLWLQGGPGGSSMFGLFVEHGPYVVTSNMTLRDRDFPWTTTLSMLYIDNPVGTGFSFTDDTHGYAVNEDDVARDLYSALIQFFQIFPEYKNNDFYVTGESYAGKYVPAIAHLIHSLNPVREVKINLNGIAIGDGYSDPESIIGGYAEFLYQIGLLDEKQKKYFQKQCHECIEHIRKQNWFEAFEILDKLLDGDLTSDPSYFQNVTGCSNYYNFLRCTEPEDQLYYVKFLSLPEVRQAIHVGNQTFNDGTIVEKYLREDTVQSVKPWLTEIMNNYKVLIYNGQLDIIVAAALTERSLMGMDWKGSQEYKKAEKKVWKIFKSDSEVAGYIRQAGDFHQVIIRGGGHILPYDQPLRAFDMINRFIYGKGWDPYVG
As for B5, the binding entry in experiment [2] was “binds”.

B6: MPP7 (protein, UniProt Q5T2T1 1-576)
chain: MPALSTGSGSDTGLYELLAALPAQLQPHVDSQEDLTFLWDMFGEKSLHSLVKIHEKLHYYEKQSPVPILHGAAALADDLAEELQNKPLNSEIRELLKLLSKPNVKALLSVHDTVAQKNYDPVLPPMPEDIDDEEDSVKIIRLVKNREPLGATIKKDEQTGAIIVARIMRGGAADRSGLIHVGDELREVNGIPVEDKRPEEIIQILAQSQGAITFKIIPGSKEETPSKEGKMFIKALFDYNPNEDKAIPCKEAGLSFKKGDILQIMSQDDATWWQAKHEADANPRAGLIPSKHFQERRLALRRPEILVQPLKVSNRKSSGFRKSFRLSRKDKKTNKSMYECKKSDQYDTADVPTYEEVTPYRRQTNEKYRLVVLVGPVGVGLNELKRKLLISDTQHYGVTVPHTTRARRSQESDGVEYIFISKHLFETDVQNNKFIEYGEYKNNYYGTSIDSVRSVLAKNKVCLLDVQPHTVKHLRTLEFKPYVIFIKPPSIERLRETRKNAKIISSRDDQGAAKPFTEEDFQEMIKSAQIMESQYGHLFDKIIINDDLTVAFNELKTTFDKLETETHWVPVSWLHS
Take B6: the binding result in experiment [2] was “binds”.

B7: PDZD8 (protein, UniProt Q8NEN9 1-1154)
chain: MGLLLMILASAVLGSFLTLLAQFFLLYRRQPEPPADEAARAGEGFRYIKPVPGLLLREYLYGGGRDEEPSGAAPEGGATPTAAPETPAPPTRETCYFLNATILFLFRELRDTALTRRWVTKKIKVEFEELLQTKTAGRLLEGLSLRDVFLGETVPFIKTIRLVRPVVPSATGEPDGPEGEALPAACPEELAFEAEVEYNGGFHLAIDVDLVFGKSAYLFVKLSRVVGRLRLVFTRVPFTHWFFSFVEDPLIDFEVRSQFEGRPMPQLTSIIVNQLKKIIKRKHTLPNYKIRFKPFFPYQTLQGFEEDEEHIHIQQWALTEGRLKVTLLECSRLLIFGSYDREANVHCTLELSSSVWEEKQRSSIKTVELIKGNLQSVGLTLRLVQSTDGYAGHVIIETVAPNSPAAIADLQRGDRLIAIGGVKITSTLQVLKLIKQAGDRVLVYYERPVGQSNQGAVLQDNFGQLEENFLSSSCQSGYEEEAAGLTVDTESRELDSEFEDLASDVRAQNEFKDEAQSLSHSPKRVPTTLSIKPLGAISPVLNRKLAVGSHPLPPKIQSKDGNKPPPLKTSEITDPAQVSKPTQGSAFKPPVPPRPQAKVPLPSADAPNQAEPDVLVEKPEKVVPPPLVDKSAEKQAKNVDAIDDAAAPKQFLAKQEVAKDVTSETSCPTKDSSDDRQTWESSEILYRNKLGKWTRTRASCLFDIEACHRYLNIALWCRDPFKLGGLICLGHVSLKLEDVALGCLATSNTEYLSKLRLEAPSPKAIVTRTALRNLSMQKGFNDKFCYGDITIHFKYLKEGESDHHVVTNVEKEKEPHLVEEVSVLPKEEQFVGQMGLTENKHSFQDTQFQNPTWCDYCKKKVWTKAASQCMFCAYVCHKKCQEKCLAETSVCGATDRRIDRTLKNLRLEGQETLLGLPPRVDAEASKSVNKTTGLTRHIINTSSRLLNLRQVSKTRLSEPGTDLVEPSPKHTPNTSDNEGSDTEVCGPNSPSKRGNSTGIKLVRKEGGLDDSVFIAVKEIGRDLYRGLPTEERIQKLEFMLDKLQNEIDQELEHNNSLVREEKETTDTRKKSLLSAALAKSGERLQALTLLMIHYRAGIEDIETLESLSLDQHSKKISKYTDDTEEDLDNEISQLIDSQPFSSISDDLFGPSESV
Turning to B7, the binding entry in experiment [2] is “no binding”.
